The assay deals with 5-HT2A (Homo sapiens, UniProt P28223). The assay can be described thus: receptor affinity. In kind it is binding. To be noted: high affinity.

The chains behind the UniProt entries cited, without tags or fusion partners.
UniProt P28223, whole entry, species assumed: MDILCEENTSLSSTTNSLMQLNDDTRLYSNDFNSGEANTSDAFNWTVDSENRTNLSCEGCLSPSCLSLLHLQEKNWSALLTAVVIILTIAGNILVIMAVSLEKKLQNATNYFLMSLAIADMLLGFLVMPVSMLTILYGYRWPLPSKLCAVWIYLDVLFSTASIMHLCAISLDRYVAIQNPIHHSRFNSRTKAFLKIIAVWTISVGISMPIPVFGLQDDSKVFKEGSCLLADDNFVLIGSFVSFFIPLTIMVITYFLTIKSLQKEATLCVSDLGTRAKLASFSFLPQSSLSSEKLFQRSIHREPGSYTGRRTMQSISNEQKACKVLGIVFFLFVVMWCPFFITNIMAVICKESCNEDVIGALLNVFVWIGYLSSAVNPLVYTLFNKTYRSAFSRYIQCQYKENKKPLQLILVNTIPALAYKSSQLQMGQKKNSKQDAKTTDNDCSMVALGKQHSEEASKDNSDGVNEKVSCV

What is called Kd is the free concentration of one partner at which half of the binding sites on the other are occupied at equilibrium, for simple one-to-one binding. The low end stands for tighter binding, the high end for weaker binding.

`COc1cc(C(C)=O)ccc1OCCCN1CCC(c2noc3cc(F)ccc23)CC1` [Iloperidone, 1-[4-[3-[4-(6-flouro-1,2-benzisoxazol-3-yl)-1-piperidinyl]propoxy]-3-methoxyphenyl]ethanone] came in with a Kd of less than 10 nM.

The record behind these values is patent US20090306137A1, “TREATMENT FOR DEPRESSIVE DISORDERS” (priority 2006, published 2009).
